# Primary screen of a compound library

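Phenotypic screen: M. tuberculosis growth, glucose 7H9 medium, 3 days; the read-out is not stated. Tested at 50 µM. Direction is inferred from retests: higher values go with more growth inhibition. Of about 69,000 compounds tested this way, about 760 (1.1%) reached 50% or more in at least one test.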

Results are given as percent effect. How 0% and 100% were set is not recorded. Most values in the screen are low, and negative values occur. The compounds are a random part of those screened. Two or more numbers in one place are separate tests of the same structure; such repeats can differ widely.

| SMILES | Percent Effect |
|---|---|
| `CC(C)(C)c1cn2c(n1)C(CNCc1cnn3ccccc13)CCC2` (configuration not stated) | 3.401 and 13.06 |
| `CCc1ccc(O)c(C(=O)N2CCN(CC(=O)N(C)C)CC2)c1` | 2.748 |
| `O=C1N(c2cccc(F)c2)Cc2nc(=O)n(Cc3ccc(Cl)cc3)n21` | -3.701 |
| `Cn1cc(NC(=O)C2CC(=O)N(c3n[nH]c4cccc(F)c34)C2)cn1` (configuration not stated) | -2.586 |
| `CCOCCCNC(=O)c1cc(C)nc(N2CCCCC2)n1` | 3.867 |
| `COc1ccccc1C1CCCN1CC(=O)N1CCC(C(N)=O)CC1` (configuration not stated) | -53.94 |
| `O=C(O)c1cc(-c2cccs2)nc2c(Br)cnn12` | -4.029 |
| `CC(=O)N1C[C@H](NS(=O)(=O)Cc2cccc(Cl)c2)[C@@H](C(C)C)C1` | -0.8911 and 23.13 |
| `Cc1cc(C)n(CC2CN(CC(=O)Nc3c(C)n[nH]c3C)CCO2)n1` (configuration not stated) | -10.13 |
| `COc1ncccc1NC(=O)N1CCC(C(=O)NC(C)C)CC1` | 3.301 |
| `CNC(=O)[C@@H]1C[C@H](N)CN1Cc1cc2cc(OC)ccc2nc1O` | -20.11 |
| `CN(CC(=O)NC1(C#N)CCCC1)C1CCCN(c2cccnn2)C1` (configuration not stated) | 23.76 |
| `[H][C@@]12CN(C(=O)N(C)C)C[C@]1([H])C(=O)N(C)C21CCN(C(=O)CC(C)C)CC1` | -5.053 |
| `CC1(C)OC(=O)N(CC(=O)N2CCC(c3ccccc3Cl)C2)C1=O` (configuration not stated) | 10.32 |
| `CCn1cc(-c2nn3c(C(F)(F)F)nnc3s2)c(C)n1` | 5.042 and -2.897 |
| `CCO[C@H]1C[C@@H](O)C12CCN(S(=O)(=O)c1ccccc1OC)CC2` | -3.883 and -6.016 |
| `COCc1csc(NC(=O)NCc2ccc(C)s2)n1` | 9.293 and 9.405 |
| `COCC(=O)N1CCC2(CCCN(Cc3ccc(Cl)cc3)CC2)CC1` | -68.24 and -2.401 |
| `O=C(c1cccnc1)N1CCOC(CCCc2ccccc2)C1` (configuration not stated) | 5.206 |
| `CCN(CC)C(=O)CCNC(=O)Cc1nc(-c2ccco2)oc1C` | -16.99 |
| `CN(C)C(=O)CN1CCc2ncnc(NC3CCC3)c2CC1.O=C(O)C(F)(F)F` | -3.355 |
| `CCOCc1ccccc1NC(=O)NCC(C)(O)c1cccs1` (configuration not stated) | 5.948 |
| `O=C(Nc1ccc(=O)n(Cc2ccccc2Cl)c1)C1CC1` | 25.08 |
| `Cc1nc(C)n(CC2CCCCN2CCc2ccncc2)n1` (configuration not stated) | -24.68 |
| `Cc1cn2c(n1)CCC(NC(=O)c1[nH]ncc1Br)C2` (configuration not stated) | -11.28 |
| `CCNc1cc(N2CCN(C(=O)c3ccc(OC)cc3)CC2)nc(C)n1` | 32.02 |
| `Cc1cnc(C(=O)N2CCCN(c3nc(C)cs3)CC2)cn1` | 9.398 |
| `COCCCN(Cc1cnc(N2CCCC2)nc1)C1CCN(C)CC1` | -23 and 0.2254 |
| `CN(C)C(=O)N1CCC2(CC1)COCCN(c1ncccn1)C2` | 9.966 |
| `O=C(O)C(F)(F)F.[H][C@@]12CCCO[C@]1([H])[C@@H](Oc1ccccn1)CN2C(=O)c1ccoc1C` | -18.73 |
| `CS(=O)(=O)CCn1ccc(NC(=O)Cc2ccccc2Cl)n1` | -19.37 and -5.269 |
| `COc1ccccc1CC(=O)N1CCC(NCc2c[nH]nc2C)CC1` | -22.54 |
| `CCn1ccnc1CN1CCN(C(C)C(=O)NCc2ccco2)CC1` (configuration not stated) | -42.8 |
| `COCCn1ccnc1C1CCCN(C(=O)c2ccncc2F)C1` (configuration not stated) | -4.25 and -26.44 |
| `CN(C)c1ncncc1NC(=O)Cc1c[nH]c2ccc(F)cc12` | 24.16 |
| `COc1cc(F)c(-n2cnc(CCNC(C)=O)c2)cc1F` | -18.87 |
| `Cc1nc(C(NC(=O)CC(F)(F)F)c2ccc(Cl)cc2)no1` (configuration not stated) | 3.263 and 14.14 |
| `COC1CCN(CC(=O)NCc2ccc(OCC(N)=O)cc2)CC1` | -37.9 |
| `CC(C)n1c(C(=O)N2CCCC2)nc2c1CCN(c1ncccn1)C2` | 17.03 and 1.044 |
| `CC(=O)N[C@@H]1CN(Cc2ccccc2C(=O)O)C[C@H]1C(C)C` | 14.86 |
| `Cc1ccccc1C1(CN)CCOCC1` | 20.94 |
| `Cc1nn(C)c(C)c1OCC(=O)NCC(O)c1ccsc1` (configuration not stated) | -2.649 |
| `CSc1cc2c(cc1NC(=O)NCC(C)(C)C(N)=O)OCCO2` | -10.53 |
| `C=C/C=c1\c(=C/C)oc2c(NCc3ccccc3)nc(CC)nc12` | 69.24 |
| `Cc1ncc(Cl)c(C(=O)N2CCCC(n3nc(C)nc3C)C2)n1` (configuration not stated) | -6.937 |
| `CN1CCC(N2CCC(CN(Cc3ccncc3)C3CCC3)CC2)CC1` | -16.86 |
| `CC1=C(c2ccc(C(C)C)cc2)S(=O)(=O)N=C1N1CCc2ccccc21` | -16.49 |
| `Cc1nc2c(c(NC3CC3)n1)CCN(C(=O)CCc1cccnc1)CC2` | 1.081 |
| `CNS(=O)(=O)CCn1cc(-c2cc3c(cc2OC)CCC3)nn1` | 19.28 |
| `Cc1cnn(C2CN(C(C)c3nc(-c4ccccc4)no3)C2)c1` (configuration not stated) | 21.69 and 15.29 |
| `O=C(O)C(F)(F)F.[H][C@@]12CN(C(=O)NCc3ccccc3)CCC[C@]1(C(=O)O)CN(C(C)C)C2` | -9.449 and -4.663 |
| `CCN1CCC(CC(=O)NCC(O)c2cccc(OC)c2)CC1` (configuration not stated) | -13.54 |
| `Cc1ccc(-c2ccc(CC3NCCN(C)C3=O)cc2)cc1.Cl` (configuration not stated) | -13.98 |
| `Cc1ncsc1C(=O)NCc1ccnc(N2CCN(C)CC2)c1` | 15.14 |
| `CCC(NC(=O)Cn1ccc(=O)n(C)c1=O)c1ccccc1OC` (configuration not stated) | 6.823 and -10.35 |
| `CC(C)(C)NC(=O)CN1CCCN(Cc2cc(C#N)ccc2F)CC1` | -35.47 |
| `N#Cc1ccc(CNC(=O)C2=NN(c3ccccc3)C(=O)CN2)cc1` | -21.22 and 2.229 |
| `O=C(O)C(F)(F)F.O=C(O)C(F)(F)F.[H][C@@]12COC[C@@H](CC(=O)N3CCOCC3)[C@]1([H])CN(Cc1cccnc1)C2` | 4.502 |
| `COc1ccc(C(C)NC(=O)Nc2nnc(C)s2)c(OC)c1` (configuration not stated) | 2.848 and -9.298 |
| `FCCOc1cccc(NCc2c[nH]nc2-c2cccnc2)c1` | -0.45 and 18.24 |
| `Cc1c(-c2cc(C(F)F)nc3sc(C(N)=O)c(N)c23)cnn1C` | 4.062 |
| `COc1ccc(CNC(=O)CNc2ccccc2OC)cc1` | 29.56 |
| `O=C(Nc1ccnc(OC2CCOC2)c1)c1ccccc1Cl` (configuration not stated) | 21.44 and 33.52 |
| `CCC(=O)Nc1nnc(CCOc2ccccc2)s1` | 13.23 |
| `COc1nc2c(cc1C(=O)NCCc1nc3c(s1)CCC3)CCC2` | -22.46 |
| `O=C(O)C(F)(F)F.O=C(c1ccccn1)N1CCOC2(COCCN(Cc3cc[nH]n3)C2)C1` (configuration not stated) | 0.3264 and 4.824 |
| `CN(C)CCN1CC(C(=O)NCc2ccc(C#N)cc2)CC1=O` (configuration not stated) | 12.8 |
| `COc1cc(C(=O)NCc2cc(N3CCOCC3)ncn2)ccn1` | -1.453 |
| `[H][C@]12CC[C@]([H])(CN(Cc3[nH]cnc3C)C1)N(C(=O)CCc1cccnc1)C2` | -28.18 |
| `Cc1ccc(-c2noc(CN3CCOC(Cn4cncn4)C3)n2)cc1` (configuration not stated) | 28.28 |
| `CCN1CCN(CC(O)c2ccc(Br)cc2)CC1` (configuration not stated) | -9.499 |
| `CCOc1ccccc1OC1CCN(C(=O)c2csnn2)CC1` | -76.24 and 1.685 |
| `COc1cnc(N2CCN(C)CC2)nc1-c1ccnn1C` | 10.26 and 17.87 |
| `c1cnn(CC2CN(c3ncnc4c3CCC4)CCO2)c1` (configuration not stated) | 50.79 and 3.236 |
| `CC[C@H](C)[C@H](N)C(=O)N1CC(=O)c2sc(NCc3ccccc3)nc2C1` | 2.584 |
| `CCNc1ncc(C(=O)N(C)C(C)c2ccc3c(c2)OCCO3)cn1` (configuration not stated) | -5.447 |
| `COCC1CN(Cc2ccccn2)Cc2cn(C)nc21.O=C(O)C(F)(F)F.O=C(O)C(F)(F)F.O=C(O)C(F)(F)F` (configuration not stated) | -1.727 |
| `COc1cc(C2(C(=O)NC3CCN(CC4CC4)CC3)CC2)ccc1C` | 30.76 |
| `CC(C)c1nnc(CN2CCCC2C(=O)OCc2ccccc2)o1` (configuration not stated) | 14.42 and -8.183 |
| `[H][C@@]12CCCO[C@]1([H])[C@H](NS(C)(=O)=O)CN(C(=O)c1ccccn1)C2` | 22.14 |
| `CCC(CO)N(Cc1ccccc1C)Cc1ccccc1C(=O)O` (configuration not stated) | 18.37 |
| `O=C(O)C(F)(F)F.[H][C@@]12CCN(S(=O)(=O)C3CC3)[C@@]1([H])CCN2Cc1ccc(C)s1` | -19.23 and 1.34 |
| `CC1CCN(C(=O)C(C)N2CCN(c3nccs3)CC2)CC1` (configuration not stated) | 15.49 |
| `CCc1cc(O)nc(C2CCCN2C(=O)c2cc(C)no2)n1` (configuration not stated) | -17.15 |
| `Cc1nnc(NC(=O)NC(C)C(=O)NC2CCCC2)s1` (configuration not stated) | 23.81 |
| `O=C(Cc1ccc2c(c1)OCCO2)N1CCN(c2cnccn2)CC1` | 1.331 and -41.89 |
| `COc1c(CNCc2ccc3c(c2)OCCO3)c(C(C)C)nn1C` | 3.813 |
| `Cc1ccc(CNC2CCCc3c2cnn3C)s1.Cl` (configuration not stated) | 11.52 |
| `O=C(NCCCn1cccn1)c1csc2c1CCCC2` | -15.24 |
| `[H][C@]12CC=C(CN3CCCn4nc(C(=O)O)cc4C3)[C@]([H])(C1)C2(C)C` | -13.24 |
| `COc1ccc(CNC(=O)NC2CCN(C)CC2)c(C(F)(F)F)c1` | 18.54 |

For reference, 9 entries once more:

- c1cnn(CC2CN(c3ncnc4c3CCC4)CCO2)c1 (configuration not stated) | 50.79% and 3.236%
- CC1CCN(C(=O)C(C)N2CCN(c3nccs3)CC2)CC1 (configuration not stated) | 15.49%
- C=C/C=c1\c(=C/C)oc2c(NCc3ccccc3)nc(CC)nc12 | 69.24%
- Cc1nn(C)c(C)c1OCC(=O)NCC(O)c1ccsc1 (configuration not stated) | -2.649%
- COc1cc(F)c(-n2cnc(CCNC(C)=O)c2)cc1F | -18.87%
- Cc1nc(C(NC(=O)CC(F)(F)F)c2ccc(Cl)cc2)no1 (configuration not stated) | 3.263% and 14.14%
- Cc1cnc(C(=O)N2CCCN(c3nc(C)cs3)CC2)cn1 | 9.398%
- [H][C@]12CC=C(CN3CCCn4nc(C(=O)O)cc4C3)[C@]([H])(C1)C2(C)C | -13.24%
- CC1(C)OC(=O)N(CC(=O)N2CCC(c3ccccc3Cl)C2)C1=O (configuration not stated) | 10.32%

Measurements from “University of Dundee, Small-Polar-MMV Screening Library” (2021), ChEMBL document CHEMBL3988442.